The values below come from paper PMC3044721.

Protein sequences, listed by entry. Tags and fused reporters are not part of them.
UniProt P03430: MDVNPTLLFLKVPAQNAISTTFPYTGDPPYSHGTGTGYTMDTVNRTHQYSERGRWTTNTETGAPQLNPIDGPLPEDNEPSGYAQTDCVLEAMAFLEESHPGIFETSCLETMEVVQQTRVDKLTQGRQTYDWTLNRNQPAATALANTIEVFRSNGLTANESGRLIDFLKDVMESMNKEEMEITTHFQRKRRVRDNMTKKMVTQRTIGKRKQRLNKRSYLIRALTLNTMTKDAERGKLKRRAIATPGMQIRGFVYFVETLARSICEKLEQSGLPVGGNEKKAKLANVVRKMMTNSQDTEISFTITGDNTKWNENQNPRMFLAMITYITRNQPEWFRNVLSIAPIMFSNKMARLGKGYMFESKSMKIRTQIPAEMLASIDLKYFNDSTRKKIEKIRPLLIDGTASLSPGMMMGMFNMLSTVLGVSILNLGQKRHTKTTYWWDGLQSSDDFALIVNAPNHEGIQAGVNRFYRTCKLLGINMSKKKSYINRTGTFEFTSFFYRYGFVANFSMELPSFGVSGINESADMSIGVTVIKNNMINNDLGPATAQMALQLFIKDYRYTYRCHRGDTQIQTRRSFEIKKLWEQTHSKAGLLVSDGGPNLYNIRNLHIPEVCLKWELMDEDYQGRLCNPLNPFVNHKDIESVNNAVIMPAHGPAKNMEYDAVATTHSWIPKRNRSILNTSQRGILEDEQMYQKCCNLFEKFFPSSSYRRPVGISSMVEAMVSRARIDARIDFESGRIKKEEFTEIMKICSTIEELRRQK
UniProt P03427: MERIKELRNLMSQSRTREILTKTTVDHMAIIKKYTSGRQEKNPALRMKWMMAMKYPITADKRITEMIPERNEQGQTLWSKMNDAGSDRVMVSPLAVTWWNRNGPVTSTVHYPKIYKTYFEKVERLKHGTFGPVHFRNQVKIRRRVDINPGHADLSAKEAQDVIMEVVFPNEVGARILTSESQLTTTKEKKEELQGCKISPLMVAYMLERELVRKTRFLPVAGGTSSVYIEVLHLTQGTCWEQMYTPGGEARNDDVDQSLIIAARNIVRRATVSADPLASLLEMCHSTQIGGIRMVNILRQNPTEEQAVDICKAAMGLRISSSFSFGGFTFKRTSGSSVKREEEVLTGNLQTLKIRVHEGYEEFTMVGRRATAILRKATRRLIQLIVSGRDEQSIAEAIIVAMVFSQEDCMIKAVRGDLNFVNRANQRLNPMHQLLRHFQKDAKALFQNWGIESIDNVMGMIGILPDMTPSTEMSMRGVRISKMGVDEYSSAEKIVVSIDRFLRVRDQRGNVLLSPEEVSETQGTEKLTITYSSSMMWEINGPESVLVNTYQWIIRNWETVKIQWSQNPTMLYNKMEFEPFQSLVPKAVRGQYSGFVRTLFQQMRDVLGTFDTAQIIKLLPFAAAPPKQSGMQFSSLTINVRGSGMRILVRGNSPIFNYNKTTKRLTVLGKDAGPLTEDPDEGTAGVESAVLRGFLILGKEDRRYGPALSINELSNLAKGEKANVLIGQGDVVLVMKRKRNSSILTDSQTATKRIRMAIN
UniProt P15682: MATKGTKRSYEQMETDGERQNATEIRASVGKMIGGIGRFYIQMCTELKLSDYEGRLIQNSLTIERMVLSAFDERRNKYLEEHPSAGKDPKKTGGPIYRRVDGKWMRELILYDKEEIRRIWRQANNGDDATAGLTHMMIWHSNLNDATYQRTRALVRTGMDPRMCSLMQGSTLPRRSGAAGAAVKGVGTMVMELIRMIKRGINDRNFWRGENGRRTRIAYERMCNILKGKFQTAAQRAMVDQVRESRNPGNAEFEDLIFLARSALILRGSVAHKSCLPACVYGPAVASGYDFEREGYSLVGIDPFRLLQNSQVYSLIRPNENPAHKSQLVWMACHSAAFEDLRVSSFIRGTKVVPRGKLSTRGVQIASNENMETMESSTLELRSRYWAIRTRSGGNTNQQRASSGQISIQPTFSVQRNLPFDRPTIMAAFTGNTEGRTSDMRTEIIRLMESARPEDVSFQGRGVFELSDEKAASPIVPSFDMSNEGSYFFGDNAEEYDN

Assay [1] deals with PB1 in the in vitro GST pull-down with NP (data not shown) (influenza A virus (strain not stated)) (UniProt P03430). Description: pull-down.
Assay [2] concerns the target PB2 in the in vitro GST pull-down with NP (data not shown) (influenza A virus (strain not stated)) (UniProt P03427). Put plainly: pull-down.

These are yes or no findings as the source states them, for the method shown. In cells and extracts the contact can be indirect. Some binding calls cover weakened binding; strength is not graded here.

On to “NP in the in vitro GST pull-down (data not shown) (from UniProt P15682 1-498)”, for which the binding entry in assay [1] and in assay [2] was “binds” each time.
